Assay results taken from patent US20250339399A1, “SUPRAMOLECULAR SELF-ASSEMBLY SYSTEM” (Beijing Creatron Institute of Pharmaceutical Research Co., …, priority 2022, published 2025).
For at least one compound, name, drawing or mass did not settle the structure.

Assay: Guest molecule concentration after incubation in initial medium without polymer (Comparative Example 1)
Type: physicochemical
Conditions: 37° C., pH 6.8 phosphate buffer
Protocol: pH 2.0 hydrochloric acid, pH 4.5 acetate, and pH 6.5, pH 6.8, or pH 7.4 phosphate buffer solutions were prepared. The selection of each initial medium followed the principle that the solubility in the initial medium of the selected targets (or active ingredients) should low enough, but should meet the detection sensitivity and accuracy requirements of the corresponding analytical methods. Each buffer as initial media was placed in a 50 ml test tube with a stopper, shaken in a constant temperature air shaker at 37° C.±0.5° C., with an amplitude of 200 rpm, and incubated for 1 hour. […] Samples were taken at 0.5 h, 3 h and 6 h after incubation, centrifuged at 37° C., 13000 rpm for 5 minutes, and the supernatant was diluted at least 10 times with the mobile phase under the target analyte analytical method, filtered, the initial filtrate was discarded, and the continued filtrate was used as the test solution for injection analysis. The corresponding HPLC method under each target object item in Table 8 was used to determine the content of each target substance. When the solubility of the target in the initial medium is below the quantitative limit of the analytical method, a small amount of surfactant, such as sodium dodecyl sulfate (SDS), Tween20, or Tween80, can be added appropriately.
The above targets were incubated at 37° C.±0.5° C. for different time in an initial medium without any polymer. Each solid target formed by molecular stacking was removed by centrifugation, and the supernatant was analyzed using the HPLC method under each target item (see Table 8). The theoretical addition concentration of each target when its supramolecular self-assembly system was built was determined by its maximum dose in clinical use.

Compound: C[C@H]1COC2=C1C(=O)C(=O)c1c2ccc2c1CCCC2(C)C [Cryptotanshinone, cryptotanshinone]
- Concentration of guest molecule measured after different incubated time (0.5 h): 1500 ng/mL
- Concentration of guest molecule measured after different incubated time (3 h): 2100 ng/mL
- Concentration of guest molecule measured after different incubated time (6 h): 2500 ng/mL
